# According to the supplement of paper PMC8728848:
# The other results are listed elsewhere or left out.
# B1: Pwp1 (Candida glabrata) (protein)
# chain: MGSSHHHHHHSSGLVPRGSHMASANPISITNVCQFPDNWARTAGFQATTVRLGLTIASNTYKELLNYPGLFNFATQKATVTQPNFSISGFPFFTGLYGLTVWPINLLVELQGYFVPPESGNYTFTLQGSDDAAILFFANPSTFACGSQNDWPQPREADITVTDTLVPSRTLYLVKGVAYPIRIAYYNGSGDGKLNVSFKDPSGTTHTDWKGYVWQYSNTCSTCTYT
# Assays:
# Assay in all cases: glycan array binding signal (z-score within array); higher = stronger binding
# Settings in all cases: glycan notation: IUPAC condensed, linker removed
# [1] = biological target: Gal(b1-4)GlcNAc(b1-6)GalNAc
# In short: (§1)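 Glycan array data came from 3228 arrays in the Consortium for Functional Glycomics database, and only arrays with an available protein sequence were kept. Glycan names were put into IUPAC-condensed notation, and columns mapping to the same glycan were averaged. The binding signal is a within-array Z-score, averaged across arrays of one protein sequence run at different concentrations or buffers and across linkers. A negative Z-score can be read as non-binding.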
# [2] = biological target: Gal(b1-4)GlcNAc(b1-6)[Gal(b1-3)]GalNAc
# In short: as §1
# [3] = biological target: Gal(b1-4)GlcNAc(b1-6)[Gal(b1-4)GlcNAc(b1-3)]GalNAc
# In short: as §1
# [4] = biological target: Gal(b1-4)GlcNAc6P
# In short: as §1
# [5] = biological target: Gal(b1-6)Gal
# In short: as §1
# [6] = biological target: Gal3S(b1-3)GalNAc
# In short: as §1
# [7] = biological target: Gal3S(b1-3)GlcNAc
# In short: as §1
# [8] = biological target: Gal3S(b1-3)[Fuc(a1-4)]GlcNAc
# In short: as §1
# [9] = biological target: Gal3S(b1-4)Glc
# In short: as §1
# [10] = biological target: Gal3S(b1-4)Glc6S
# In short: as §1
# [11] = biological target: Gal3S(b1-4)GlcNAc
# In short: as §1
# [12] = biological target: Gal3S(b1-4)[Fuc(a1-3)]Glc6S
# In short: as §1
# [13] = biological target: Gal3S(b1-4)[Fuc(a1-3)]GlcNAc
# In short: as §1
# [14] = biological target: Gal3S(b1-4)[Fuc(a1-3)]GlcNAc6S
# In short: as §1
# [15] = biological target: Gal3S4S(b1-4)GlcNAc
# In short: as §1
# [16] = biological target: Gal3S6S(b1-4)GlcNAc
# In short: as §1
# [17] = biological target: Gal3S6S(b1-4)GlcNAc6S
# In short: as §1
# [18] = biological target: Gal4S(b1-4)GlcNAc
# In short: as §1
# [19] = biological target: Gal4S6S(b1-4)GlcNAc
# In short: as §1
# [20] = biological target: Gal6P(b1-4)GlcNAc
# In short: as §1
# [21] = biological target: Gal6S(b1-3)GlcNAc
# In short: as §1
# [22] = biological target: Gal6S(b1-3)GlcNAc6S
# In short: as §1
# [23] = biological target: Gal6S(b1-4)Glc
# In short: as §1
binder,measurement,setting,value
B1,glycan array binding signal (z-score),[1],-0.9
same,glycan array binding signal (z-score),[2],-0.967
same,glycan array binding signal (z-score),[3],-0.483
same,glycan array binding signal (z-score),[4],-0.27
same,glycan array binding signal (z-score),[5],1.26
same,glycan array binding signal (z-score),[6],-0.192
same,glycan array binding signal (z-score),[7],-0.165
same,glycan array binding signal (z-score),[8],-0.613
same,glycan array binding signal (z-score),[9],0.803
same,glycan array binding signal (z-score),[10],0.562
same,glycan array binding signal (z-score),[11],0.127
same,glycan array binding signal (z-score),[12],-0.627
same,glycan array binding signal (z-score),[13],-0.856
same,glycan array binding signal (z-score),[14],-1.19
same,glycan array binding signal (z-score),[15],1.08
same,glycan array binding signal (z-score),[16],-1.54
same,glycan array binding signal (z-score),[17],-1.07
same,glycan array binding signal (z-score),[18],0.267
same,glycan array binding signal (z-score),[19],0.962
same,glycan array binding signal (z-score),[20],1.06
same,glycan array binding signal (z-score),[21],-0.307
same,glycan array binding signal (z-score),[22],0.761
same,glycan array binding signal (z-score),[23],-0.004

# Two entries from above, as tab-separated lines.
binder	measurement	setting	value
B1	glycan array binding signal (z-score)	[22]	0.761
same	glycan array binding signal (z-score)	[23]	-0.004
